In article PMC10916400, “Effect of the aggregated protein dye YAT2150 on Leishmania parasite viability” (Antimicrobial Agents and Chemotherapy, 2024):

test system: L. infantum promastigotes; format: cell-based, Leishmania infantum; conditions: CC50 in human umbilical vein endothelial cells / IC50 for promastigotes
Protocol: L. infantum (MHOM/ES/2016/CATB101) promastigotes were maintained at 26°C in complete Schneider’s medium (Schneider’s insect medium supplemented with 10% FBS, 25 µg/mL gentamycin, 1% penicillin-streptomycin, and 1% sterile human urine, pH 6.7). For growth inhibition assays, promastigotes were used in the logarithmic growth phase, whereas for the infection of macrophages and generation of amastigotes they were used in the stationary phase. Axenic amastigotes were obtained following established protocols ([40], [57][–][59]); briefly, 1 × 10^7 promastigotes/mL in stationary phase were cultured in Schneider’s insect medium supplemented with 20% FBS, 25 µg/mL gentamycin, and 3.9 g/L of 2-(N-morpholino)ethanesulfonic acid, at pH 5.4 and 37°C. After 48 h, the typical rounded morphology of axenic amastigotes and their flagellum shortening could be observed. This culture was used within a week after its preparation.
In 96-well microtiter plates (Nunclon Delta surface; Thermo Fisher Scientific Inc.), serial dilutions (1:2) of the drugs or peptides were performed, either free or loaded in nanoformulations, in 100 µL of complete Schneider’s medium, to which one volume of 2 × 10^6 logarithmic growth-phase L. infantum promastigotes/mL in the same buffer was added. After 48 h, resazurin sodium salt was incorporated at a final concentration of 0.00125% and the plates were incubated at 26°C for another 24 h, when fluorescence from resorufin was measured as described above.

Row | SMILES | Selectivity index (CC50/IC50)
1 | CC1=CC2Cc3nc4ccccc4c(NCCCCCCCCCCNc4c5c(nc6ccccc46)CCCC5)c3C(C1)C2 (stereo not drawn) [HUPH10TH] | 4.7
2 | CC1=CC2Cc3nc4cc(Cl)ccc4c(NCCCCCCCNc4c5c(nc6ccccc46)CCCC5)c3C(C1)C2 (stereo not drawn) [HUP7TH] | 6.4
3 | CC1=CC2Cc3nc4cc(Cl)ccc4c(NCCCN(C)CCCNc4c5c(nc6ccccc46)CCCC5)c3C(C1)C2 (stereo not drawn) [HUPNTH] | 1.4

same assay, conditions: YAT2150 IC50 0.52 µM vs reported IC50 of pentamidine (34), miltefosine (35), paromomycin (36)

Row | SMILES | fold by which the IC50 of YAT2150 is lower than that reported in promastigotes for the antileishmanial agent
4 | N=C(N)c1ccc(OCCCCCOc2ccc(C(=N)N)cc2)cc1 [pentamidine, reference compound] | ca. 54 fold
5 | CCCCCCCCCCCCCCCCOP(=O)([O-])OCC[N+](C)(C)C [miltefosine, reference compound] | ~20 fold
6 | NC[C@@H]1O[C@H](O[C@H]2[C@@H](O)[C@H](O[C@@H]3[C@@H](O)[C@H](N)C[C@H](N)[C@H]3O[C@H]3O[C@H](CO)[C@@H](O)[C@H](O)[C@H]3N)O[C@@H]2CO)[C@H](N)[C@@H](O)[C@@H]1O [paromomycin, reference compound] | ~542 fold
